This is an account of results in paper PMC9577956.

Amino acid sequences for entries named in this document (tags omitted).
UniProt P63017: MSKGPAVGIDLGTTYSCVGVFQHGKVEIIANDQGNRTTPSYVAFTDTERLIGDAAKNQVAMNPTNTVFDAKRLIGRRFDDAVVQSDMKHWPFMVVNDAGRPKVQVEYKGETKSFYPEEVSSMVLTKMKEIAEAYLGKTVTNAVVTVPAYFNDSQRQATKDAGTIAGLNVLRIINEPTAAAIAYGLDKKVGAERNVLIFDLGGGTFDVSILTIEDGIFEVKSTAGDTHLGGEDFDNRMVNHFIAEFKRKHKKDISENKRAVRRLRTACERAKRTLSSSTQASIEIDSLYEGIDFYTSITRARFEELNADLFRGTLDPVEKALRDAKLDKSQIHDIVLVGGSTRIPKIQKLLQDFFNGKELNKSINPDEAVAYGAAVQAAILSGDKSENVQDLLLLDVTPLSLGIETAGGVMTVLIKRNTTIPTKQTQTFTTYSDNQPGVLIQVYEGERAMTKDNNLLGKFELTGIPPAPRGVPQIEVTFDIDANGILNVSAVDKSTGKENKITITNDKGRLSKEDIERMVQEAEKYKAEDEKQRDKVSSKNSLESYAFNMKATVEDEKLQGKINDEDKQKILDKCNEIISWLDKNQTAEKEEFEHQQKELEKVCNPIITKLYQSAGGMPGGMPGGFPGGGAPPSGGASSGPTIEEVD
UniProt Q9Z1R2: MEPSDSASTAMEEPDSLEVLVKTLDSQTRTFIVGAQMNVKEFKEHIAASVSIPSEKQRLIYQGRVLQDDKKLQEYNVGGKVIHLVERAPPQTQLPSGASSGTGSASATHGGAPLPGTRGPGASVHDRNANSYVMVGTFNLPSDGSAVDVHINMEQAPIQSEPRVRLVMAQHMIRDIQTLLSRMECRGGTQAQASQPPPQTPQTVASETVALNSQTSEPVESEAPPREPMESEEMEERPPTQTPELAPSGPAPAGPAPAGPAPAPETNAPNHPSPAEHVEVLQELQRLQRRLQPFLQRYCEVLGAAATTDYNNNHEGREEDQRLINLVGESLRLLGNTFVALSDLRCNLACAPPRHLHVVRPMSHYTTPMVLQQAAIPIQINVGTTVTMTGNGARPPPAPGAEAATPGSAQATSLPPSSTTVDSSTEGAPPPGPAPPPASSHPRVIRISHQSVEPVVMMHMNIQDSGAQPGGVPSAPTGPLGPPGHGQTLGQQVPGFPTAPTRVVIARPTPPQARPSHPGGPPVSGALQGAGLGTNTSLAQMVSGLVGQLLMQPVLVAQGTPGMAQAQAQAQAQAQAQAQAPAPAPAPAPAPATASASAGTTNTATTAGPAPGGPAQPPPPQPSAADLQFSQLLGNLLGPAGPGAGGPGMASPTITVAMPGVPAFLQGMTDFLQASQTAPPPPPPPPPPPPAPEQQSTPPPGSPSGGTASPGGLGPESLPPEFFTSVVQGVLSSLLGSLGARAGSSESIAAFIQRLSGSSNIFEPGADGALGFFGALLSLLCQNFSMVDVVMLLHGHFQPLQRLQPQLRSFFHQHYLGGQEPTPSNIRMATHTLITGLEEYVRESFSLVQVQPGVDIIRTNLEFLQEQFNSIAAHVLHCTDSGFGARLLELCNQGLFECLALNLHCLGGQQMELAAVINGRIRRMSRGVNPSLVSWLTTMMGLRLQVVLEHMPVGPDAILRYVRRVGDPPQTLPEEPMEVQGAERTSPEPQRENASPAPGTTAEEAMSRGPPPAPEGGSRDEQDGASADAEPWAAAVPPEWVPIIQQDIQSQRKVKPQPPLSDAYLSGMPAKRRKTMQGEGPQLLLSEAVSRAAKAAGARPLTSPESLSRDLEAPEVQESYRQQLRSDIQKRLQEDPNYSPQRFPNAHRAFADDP
UniProt Q8R313: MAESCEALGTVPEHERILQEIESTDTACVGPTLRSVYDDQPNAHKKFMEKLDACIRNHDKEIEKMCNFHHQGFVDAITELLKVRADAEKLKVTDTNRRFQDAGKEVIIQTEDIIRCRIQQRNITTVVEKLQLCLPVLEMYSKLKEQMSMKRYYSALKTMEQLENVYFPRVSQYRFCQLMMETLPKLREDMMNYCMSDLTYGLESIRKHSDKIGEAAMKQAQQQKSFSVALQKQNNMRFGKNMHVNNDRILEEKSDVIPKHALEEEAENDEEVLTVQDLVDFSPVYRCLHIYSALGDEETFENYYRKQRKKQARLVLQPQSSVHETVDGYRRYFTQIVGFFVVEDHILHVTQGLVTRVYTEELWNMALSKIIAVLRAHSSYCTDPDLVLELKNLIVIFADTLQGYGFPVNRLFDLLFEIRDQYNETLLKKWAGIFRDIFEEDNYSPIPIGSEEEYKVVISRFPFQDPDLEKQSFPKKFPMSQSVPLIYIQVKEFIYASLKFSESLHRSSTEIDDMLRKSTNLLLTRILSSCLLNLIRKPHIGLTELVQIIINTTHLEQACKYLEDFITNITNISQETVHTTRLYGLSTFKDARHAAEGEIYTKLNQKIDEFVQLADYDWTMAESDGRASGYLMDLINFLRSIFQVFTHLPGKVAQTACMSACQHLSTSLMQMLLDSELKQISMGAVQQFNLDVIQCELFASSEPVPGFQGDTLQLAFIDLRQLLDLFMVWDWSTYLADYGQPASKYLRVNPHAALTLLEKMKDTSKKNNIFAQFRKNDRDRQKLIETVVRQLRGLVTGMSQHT
UniProt O35382: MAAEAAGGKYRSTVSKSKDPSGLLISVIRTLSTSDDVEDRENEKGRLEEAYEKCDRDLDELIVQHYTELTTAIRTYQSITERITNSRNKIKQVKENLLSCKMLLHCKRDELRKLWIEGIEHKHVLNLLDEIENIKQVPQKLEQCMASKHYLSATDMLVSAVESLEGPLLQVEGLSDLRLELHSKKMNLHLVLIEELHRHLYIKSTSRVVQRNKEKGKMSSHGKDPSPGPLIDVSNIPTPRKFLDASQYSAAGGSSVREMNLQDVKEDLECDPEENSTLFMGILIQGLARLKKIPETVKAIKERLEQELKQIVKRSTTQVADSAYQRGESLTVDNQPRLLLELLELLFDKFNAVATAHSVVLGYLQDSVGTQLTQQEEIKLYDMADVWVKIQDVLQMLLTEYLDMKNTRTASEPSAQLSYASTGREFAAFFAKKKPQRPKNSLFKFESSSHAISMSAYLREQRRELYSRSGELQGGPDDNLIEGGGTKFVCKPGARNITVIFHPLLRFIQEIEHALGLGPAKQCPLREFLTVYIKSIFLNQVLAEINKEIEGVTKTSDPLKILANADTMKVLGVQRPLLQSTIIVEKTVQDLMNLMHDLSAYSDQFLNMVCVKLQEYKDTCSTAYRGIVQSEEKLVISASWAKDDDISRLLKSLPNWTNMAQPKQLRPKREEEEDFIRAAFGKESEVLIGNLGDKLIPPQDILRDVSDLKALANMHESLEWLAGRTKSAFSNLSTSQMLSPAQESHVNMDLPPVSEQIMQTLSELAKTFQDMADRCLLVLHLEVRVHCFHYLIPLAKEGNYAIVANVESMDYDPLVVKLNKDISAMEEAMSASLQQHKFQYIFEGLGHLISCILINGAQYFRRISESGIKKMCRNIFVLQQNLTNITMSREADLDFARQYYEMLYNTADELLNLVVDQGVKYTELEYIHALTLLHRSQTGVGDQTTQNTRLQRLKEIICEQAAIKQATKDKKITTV
UniProt O35250: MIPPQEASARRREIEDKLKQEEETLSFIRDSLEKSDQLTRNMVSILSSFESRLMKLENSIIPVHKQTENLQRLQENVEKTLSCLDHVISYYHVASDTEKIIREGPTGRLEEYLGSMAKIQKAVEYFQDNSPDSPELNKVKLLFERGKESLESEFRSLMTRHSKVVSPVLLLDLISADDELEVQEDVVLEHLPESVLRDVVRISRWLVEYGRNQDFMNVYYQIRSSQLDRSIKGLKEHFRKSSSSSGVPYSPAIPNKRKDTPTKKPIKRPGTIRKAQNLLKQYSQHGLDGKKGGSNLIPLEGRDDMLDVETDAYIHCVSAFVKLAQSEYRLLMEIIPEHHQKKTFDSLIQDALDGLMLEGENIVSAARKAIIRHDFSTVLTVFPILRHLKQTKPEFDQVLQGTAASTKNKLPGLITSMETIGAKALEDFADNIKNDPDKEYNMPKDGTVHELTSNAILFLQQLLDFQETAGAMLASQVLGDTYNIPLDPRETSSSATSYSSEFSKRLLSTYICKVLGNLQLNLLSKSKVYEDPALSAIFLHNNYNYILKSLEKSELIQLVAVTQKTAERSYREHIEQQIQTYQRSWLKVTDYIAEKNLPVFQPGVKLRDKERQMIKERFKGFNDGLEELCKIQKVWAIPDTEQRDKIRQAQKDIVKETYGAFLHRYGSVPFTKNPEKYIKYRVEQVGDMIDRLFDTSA

Results are given in words; binding and its absence hold for the method and conditions named. Binding seen in cells or lysates may run through a third protein. Some results given as binding are weak or reduced against the parent protein; the word gives no strength.

In test [1] the target is heat shock cognate protein of 70 kDa (Hsc70) (not stated (endogenous in rodent liver; rats and mice used)) (UniProt P63017). Description: co-IP; liver cytosol (100,000 x g supernatant); primary antibodies against Bag6, Hsc70 or Tsg101 and Protein A/G Plus agarose beads; immunoblot. Background: Immunoblotting shows a protein as a band on a membrane.
Test [2] has as its target Bag6 (not stated (endogenous in rodent liver; rats and mice used)) (UniProt Q9Z1R2). Described as above.
Test [3] concerns the target Exoc6 (mouse (endogenous in liver LE/MVBs)) (UniProt Q8R313). As to the kind of experiment: co-IP; LE/MVBs from livers of 4 m and 22 m old mice solubilised in a mild detergent/low salt buffer; IP with antibodies against Exoc4, RalA or Exoc6 and Protein A/G Plus agarose beads; immunoblot.
The target in test [4] is heat shock cognate protein of 70 kDa (Hsc70) (not stated (endogenous in rodent liver; rats and mice used)) (UniProt P63017). Description: co-IP; isolated liver LE/MVBs solubilised in a mild detergent/low salt buffer; primary antibodies and Protein A/G Plus agarose beads; immunoblot.
In test [5] the target is Bag6 (not stated (endogenous in rodent liver; rats and mice used)) (UniProt Q9Z1R2). Described as above.
Test [6] has as its target Exoc4 (mouse (endogenous in liver LE/MVBs)) (UniProt O35382). The test is described as above.

With Exoc4 (from UniProt O35382 1-975), the binding entry in test [1] is recorded as “no binding (condition: in the cytosol fraction)”; in test [2], “no binding (condition: in the cytosol fraction)”; in test [3] it was “binds”; in test [4], “binds”; in test [5], “binds”.
Regarding Exoc7 (from UniProt O35250 1-697), the binding entry was “no binding (condition: in the cytosol fraction)” in test [1], “no binding (condition: in the cytosol fraction)” in test [2], “binds” in test [4] and “binds” in test [5].

B1: lysosome-associated membrane protein 1 (LAMP-1) (protein, UniProt P11438 25-406)
chain: LFEVKNNGTTCIMASFSASFLTTYETANGSQIVNISLPASAEVLKNGSSCGKENVSDPSLTITFGRGYLLTLNFTKNTTRYSVQHMYFTYNLSDTEHFPNAISKEIYTMDSTTDIKADINKAYRCVSDIRVYMKNVTVVLRDATIQAYLSSGNFSKEETHCTQDGPSPTTGPPSPSPPLVPTNPTVSKYNVTGNNGTCLLASMALQLNITYLKKDNKTVTRAFNISPNDTSSGSCGINLVTLKVENKNRALELQFGMNASSSLFFLQGVRLNMTLPDALVPTFSISNHSLKALQATVGNSYKCNTEEHIFVSKMLSLNVFSVQVQAFKVDSDRFGSVEECVQDGNNMLIPIAVGGALAGLVLIVLIAYLIGRKRSHAGYQTI
On to B1, for which the binding entry in test [6] is reported as “no binding”.

B2: GTPase RalA (protein, UniProt P63321 1-206)
chain: MAANKPKGQNSLALHKVIMVGSGGVGKSALTLQFMYDEFVEDYEPTKADSYRKKVVLDGEEVQIDILDTAGQEDYAAIRDNYFRSGEGFLCVFSITEMESFAATADFREQILRVKEDENVPFLLVGNKSDLEDKRQVSVEEAKNRADQWNVNYVETSAKTRANVDKVFFDLMREIRARKMEDSKEKNGKKKRKSLAKRIRERCCIL
As to B2, in test [6], the binding result was “binds”.
